Experimental data: patent publication US20230332103A1, “Methods and Compositions for Generating Human Forebrain Neural Progenitor Cells and for Maturation Thereof to Parvalbumin+ Interneurons” (Trailhead Biosystems Inc., priority 2021, published 2023)
At least one compound was matched to its structure with a doubt left.

Test system: stage 4 neural stem cells
Experiment: HD-DoE 8-factor experiment for stage 5 recipe (Forskolin, Arachidonic acid, VPA, BDNF, BT13, O-LPA, GW7646, Sodium pyruvate), optimized for PVALB
Assay type: cell-based, human
Conditions: dynamic profile analysis, FIG. 26
Method: To further guide the differentiation of forebrain-committed neural stem cells to PVALB interneuron cells, an additional HD-DoE experiment was performed for 3 days on cells that were treated with stage 1 to stage 4 media for total of 12 days prior to start of the experiment. This experiment included 8 effectors, Forskolin, Arachidonic acid, VPA, BDNF, BT13, O-LPA, GW7646, and Sodium pyruvate. In this model, we focused on maximum expression of PVALB gene expressed in PVALB (+) interneurons (Nahar et al. (2021) Front. Psych. 12:679960). When the model was optimized for maximum expression of PVALB, Forskolin, GW7646, Sodium Pyruvate had the highest factor contributions, 3.14, 27.2, and 17.1 respectively (FIG. 25).
So, it was excluded in the recipe.

Compound: C=C[C@@]1(C)CC(=O)[C@]2(O)[C@@]3(C)[C@@H](O)CCC(C)(C)[C@@H]3[C@H](O)[C@H](OC(C)=O)[C@@]2(C)O1 [Forskolin]
- impact on expression of PVALB: positive impact
